The other results are listed elsewhere or left out. The main result of the screen is listed elsewhere. These columns were measured beside it and carry no call. Most of these compounds were active or inconclusive in the main read-out, so they are no random draw. Potencies come from curve fits of mixed quality, noted in brackets.
Test: qHTS Assay for Lipid Storage Modulators in Drosophila S3 Cells;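 for cell number change: cells counted by Cell Tracker Red CMTPX staining in the red channel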
Settings: BODIPY lipid droplet fluorescence, 18-24 h; for cell number change: measured here: cell count max response, cells fed with added oleic acid
Summary of the method: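 Drosophila S3 cells loaded with oleic acid (400 uM, as added) and compounds at several concentrations; lipid droplets imaged by 488-nm laser-scanning cytometry, 500–530 nm intensity and object ratio to cell channel. Percent activity normalized to 20 uM Triacsin C.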

[1] = measured here: lipid fluorescence (Fed channel) AC50, cells fed with added oleic acid
[2] = measured here: cell number channel AC50, cells fed with added oleic acid

SMILES	cell number change [%]	AC50 [1]	AC50 [2]
Cc1ccc(-c2nnc3n2N=C(c2ccccc2Br)CS3)cc1	-2.27	1.46 µM [rising, full curve, poor fit]	–
NC(=O)c1ccccc1NS(=O)(=O)c1ccc(S(=O)(=O)N2CCCC2)cc1	-10.1	11.6 µM [falling, partial curve, poor fit]	–
Cc1cc(C)n(CCC(=O)Nc2ccc(-c3ccno3)cc2)n1	-83.3	–	29.1 µM [falling, single point]
COc1ccc(CCNc2nc(C)nc3c2oc2ccccc23)cc1OC	-42.4	29.1 µM [falling, single point]	29.1 µM [falling, single point]
O=C(CNc1cc([N+](=O)[O-])ccc1NCCO)Nc1cccc(S(=O)(=O)N2CCCCC2)c1	24.7	3.66 µM [rising, partial curve, poor fit]	–
O=C(Cc1ccc(Cl)cc1)NC1CCCN(Cc2ccccc2F)C1 (stereo unspecified)	4.68	–	–
CC(Sc1nc2ccccc2c(=O)n1CC1CCCO1)C(=O)NC(C)c1ccccc1 (stereo unspecified)	219	20.6 µM [rising, partial curve]	29.1 µM [rising, single point]
O=C(Cc1ccccc1)N/N=C/c1cc(Br)cs1	30.2	–	29.1 µM [rising, single point]
O=C(NC(=S)Nc1ccccc1)C1CCCCC1	21.1	–	0.231 µM [rising, full curve, poor fit]
Cn1c(=O)c2cn3ncccc3c2n(C)c1=O	-19.4	0.58 µM [rising, partial curve]	–
O=c1oc2ccccc2c(NCc2ccc(Cl)cc2)c1[N+](=O)[O-]	–	2.59 µM [rising, partial curve]	1.64 µM [rising, partial curve]
Cc1cc(Nc2ccc3ccccc3c2)n2ncnc2n1	-1.6	0.651 µM [rising, full curve, poor fit]	–
CCOC(=O)CN1CC23C=CC(O2)C(C(=O)NCCc2ccccc2)C3C1=O (stereo unspecified)	8.47	0.291 µM [falling, full curve, poor fit]	0.259 µM [rising, partial curve, poor fit]
CCn1nnnc1-c1ccc(OC)c(S(=O)(=O)Nc2ccc(S(N)(=O)=O)cc2)c1	-2.17	–	–
Cc1nc2ccccn2c1C(=O)CSc1ccccc1	20.8	6.51 µM [rising, partial curve, poor fit]	6.51 µM [rising, single point]
O=C(NCc1ccc(F)cc1)c1noc2c1CCCCC2	-16.1	–	–
CC/C(=C\C(=O)c1ccncc1)Nc1ccc(Br)cc1	83.6	1.3 µM [rising, full curve]	1.3 µM [rising, full curve]
CC(NC(=O)CCCc1ccccc1)c1ccncc1 (stereo unspecified)	15.8	–	–
O=C(CN1C(=O)c2ccccc2S1(=O)=O)c1ccc(O)c(O)c1	-33.6	5.8 µM [falling, full curve]	6.51 µM [falling, partial curve]

In the list so far, 2 contain two or more sulfur atoms.
SMILES	cell number change [%]	AC50 [1]	AC50 [2]
NC(=O)c1ccccc1NS(=O)(=O)c1ccc(S(=O)(=O)N2CCCC2)cc1	-10.1	11.6 µM [falling, partial curve, poor fit]	–
CCn1nnnc1-c1ccc(OC)c(S(=O)(=O)Nc2ccc(S(N)(=O)=O)cc2)c1	-2.17	–	–

The list continues.

SMILES	cell number change [%]	AC50 [1]	AC50 [2]
CCCNC(=O)c1ccc(CN2CCc3ccccc3C2)cc1	18.1	–	–
N#Cc1c(-c2ccccc2)nc(-c2ccccc2)nc1N1CCOCC1	90	0.731 µM [rising, partial curve]	0.461 µM [rising, full curve]
CCCCNC(=O)CSc1nnc(NC(C)=O)s1	1.74	0.00517 µM [falling, full curve, poor fit]	–
c1ccc(N2CCN(c3nc4ccccc4n4cnnc34)CC2)cc1	-2.58	9.2 µM [rising, partial curve, poor fit]	–
O=[N+]([O-])c1ccc(Cl)c(S(=O)(=O)Nc2ccc(-c3ccc(N4CCCC4)nn3)cc2)c1	6.88	–	–
Clc1ccc2c(c1)C1=C(C(c3ccncc3)O2)C(c2ccc(Br)cc2)n2ncnc2N1 (stereo unspecified)	-13.6	–	3.66 µM [rising, single point]
Cc1c(C(=O)N(C)CCCCN2CCOCC2)oc2c(F)cccc12	21.5	29.1 µM [rising, single point]	0.116 µM [rising, full curve, poor fit]
Cc1ccc(C(=O)Nc2cccc(C(=O)N3CCOCC3)c2)cc1Cl	-36.9	20.6 µM [falling, single point]	29.1 µM [falling, single point]
CCOc1ccc(NCc2nnc(SCC(=O)Nc3cc(C)on3)n2-c2ccccc2OC)cc1	11.3	7.31 µM [rising, partial curve, poor fit]	–
CCN(CC)C(=O)CSc1nnc(CSc2ncccn2)n1C	-13	–	–
COc1ccc(-c2cnn(-c3ccccc3)c2N)cc1OC	-12.8	20.6 µM [falling, single point]	–
O=C(O)CCCC(=O)Nc1ccc(N2CCCC2)cc1	1.03	0.00517 µM [falling, full curve, poor fit]	–
CCN(CC)S(=O)(=O)c1c(Br)cc(C)cc1Br	2.46	–	–
CC(C)CC(=O)NC1(C(F)(F)F)C(=O)Nc2c1c(=O)[nH]c(=O)n2Cc1ccco1 (stereo unspecified)	-13.2	–	2.06 µM [falling, partial curve]
Cc1csc(NC(=O)CSc2nnc(NC(=O)C3CC(=O)N(c4ccccc4)C3)s2)n1 (stereo unspecified)	8.33	–	–
COc1ccc(/C=C/CN2CCC(Oc3ccc(C(=O)N4CCCCC4)cc3)CC2)cc1	6.93	29.1 µM [rising, single point]	–
O=c1c2ccccc2nc(SCc2cn3ccsc3n2)n1-c1ccc(F)cc1	–	2.06 µM [rising, partial curve]	1.64 µM [rising, partial curve]
O=S(=O)(c1cccs1)N1CN(Cc2cccs2)c2nc3ccccc3nc21	–	0.651 µM [rising, single point]	–
Cc1ccc2nc(SCC(=O)Nc3ccc(C)c([N+](=O)[O-])c3)[nH]c2c1	-31.1	29.1 µM [falling, single point]	16.4 µM [falling, single point]
